Paper PMC7156710

Chains of the proteins cited; added tags and fusions are not shown. Residues count along the entry.
UniProt P48431, 40-123: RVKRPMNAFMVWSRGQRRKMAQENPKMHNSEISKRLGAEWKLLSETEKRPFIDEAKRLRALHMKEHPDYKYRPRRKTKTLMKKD
UniProt P48431, 40-123 H105A: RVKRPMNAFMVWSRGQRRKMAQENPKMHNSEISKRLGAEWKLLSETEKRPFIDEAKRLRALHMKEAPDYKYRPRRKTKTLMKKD
UniProt P48431, 40-123 R43A: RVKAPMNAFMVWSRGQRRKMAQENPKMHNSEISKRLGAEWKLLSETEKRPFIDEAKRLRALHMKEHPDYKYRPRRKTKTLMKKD
UniProt P48431, 40-123 F48A: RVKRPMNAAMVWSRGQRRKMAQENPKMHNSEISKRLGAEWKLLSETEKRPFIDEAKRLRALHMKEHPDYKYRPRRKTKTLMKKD
UniProt P48431, 40-123 W79A: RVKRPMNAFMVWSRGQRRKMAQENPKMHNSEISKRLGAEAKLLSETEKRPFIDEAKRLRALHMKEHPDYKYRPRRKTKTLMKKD
UniProt P48431, 40-123 Y110A: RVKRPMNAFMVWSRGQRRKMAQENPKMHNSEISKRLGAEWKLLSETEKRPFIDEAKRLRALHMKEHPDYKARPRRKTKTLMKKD
UniProt P48431, 40-123 W51A: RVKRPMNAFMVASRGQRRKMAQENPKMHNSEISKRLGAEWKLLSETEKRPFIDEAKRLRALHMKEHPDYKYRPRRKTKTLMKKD
UniProt P48431, 40-123 H101A: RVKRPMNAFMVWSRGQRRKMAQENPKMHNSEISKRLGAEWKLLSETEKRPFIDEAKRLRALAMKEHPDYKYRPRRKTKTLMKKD
UniProt P48431, 40-123 N46A: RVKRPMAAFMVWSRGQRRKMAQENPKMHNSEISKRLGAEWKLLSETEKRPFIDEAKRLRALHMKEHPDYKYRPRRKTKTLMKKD
UniProt P48431, 40-123 K115A: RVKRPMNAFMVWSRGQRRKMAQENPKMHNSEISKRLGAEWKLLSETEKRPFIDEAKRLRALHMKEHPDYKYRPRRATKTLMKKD
UniProt P48431, 40-123 M49A: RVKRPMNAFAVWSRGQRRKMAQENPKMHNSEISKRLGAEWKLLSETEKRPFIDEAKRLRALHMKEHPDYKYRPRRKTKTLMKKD
UniProt P48431, 40-123 R56A: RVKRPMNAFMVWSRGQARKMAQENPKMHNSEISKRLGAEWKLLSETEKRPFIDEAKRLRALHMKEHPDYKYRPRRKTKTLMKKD

What was measured:
Sox2-HMG (Homo sapiens) [1] = target: Sox2-HMG (Homo sapiens) (UniProt P48431); assay: fluorescence anisotropy; conditions: 10 mM Tris-HEPES pH 7.5, 135 mM KCl, 15 mM NaCl, 1 mM DTT, 8% Ficoll, 0.05% NP-40, 0.1 mg/mL BSA, 2 nM DNA or 3 nM RNA, room temperature (stated for competition), recombinant protein, residues 40-123, protein details: N-terminal His6, thrombin cleaved
Sox2-HMG (Homo sapiens) [2] = target: Sox2-HMG (Homo sapiens) (UniProt P48431); assay: NMR HSQC; conditions: 10 mM Tris-HEPES pH 7.5, 135 mM KCl, 15 mM NaCl, 1 mM DTT, 8% Ficoll, 0.05% NP-40, 0.1 mg/mL BSA; 2 nM DNA or 3 nM RNA; room temperature (stated for competition); recombinant protein; residues 40-123; protein details: N-terminal His6, thrombin cleaved; label: FAM
Sox2-HMG (Homo sapiens) [3] = target: Sox2-HMG (Homo sapiens) (UniProt P48431); assay: competition with a labelled probe; conditions: unlabeled DNA vs labeled Loop B/Bulge(0+1) RNA; 10 mM Tris-HEPES pH 7.5, 135 mM KCl, 15 mM NaCl, 1 mM DTT, 8% Ficoll, 0.05% NP-40, 0.1 mg/mL BSA; 2 nM DNA or 3 nM RNA; room temperature (stated for competition); recombinant protein; residues 40-123; protein details: N-terminal His6, thrombin cleaved; label: FAM
[4] = target: Sox2-HMG H105A (Homo sapiens) (UniProt P48431); assay: fluorescence anisotropy; conditions: 10 mM Tris-HEPES pH 7.5, 135 mM KCl, 15 mM NaCl, 1 mM DTT, 8% Ficoll, 0.05% NP-40, 0.1 mg/mL BSA; 2 nM DNA or 3 nM RNA; room temperature (stated for competition); recombinant protein; residues 40-123; protein details: His6; label: FAM
[5] = target: Sox2-HMG R43A (Homo sapiens) (UniProt P48431); assay: fluorescence anisotropy; conditions: 10 mM Tris-HEPES pH 7.5, 135 mM KCl, 15 mM NaCl, 1 mM DTT, 8% Ficoll, 0.05% NP-40, 0.1 mg/mL BSA; 2 nM DNA or 3 nM RNA; room temperature (stated for competition); recombinant protein; residues 40-123; protein details: His6; label: FAM
[6] = target: Sox2-HMG F48A (Homo sapiens) (UniProt P48431); assay: fluorescence anisotropy; conditions: 10 mM Tris-HEPES pH 7.5, 135 mM KCl, 15 mM NaCl, 1 mM DTT, 8% Ficoll, 0.05% NP-40, 0.1 mg/mL BSA; 2 nM DNA or 3 nM RNA; room temperature (stated for competition); recombinant protein; residues 40-123; protein details: His6; label: FAM
[7] = target: Sox2-HMG W79A (Homo sapiens) (UniProt P48431); assay: fluorescence anisotropy; conditions: 10 mM Tris-HEPES pH 7.5, 135 mM KCl, 15 mM NaCl, 1 mM DTT, 8% Ficoll, 0.05% NP-40, 0.1 mg/mL BSA; 2 nM DNA or 3 nM RNA; room temperature (stated for competition); recombinant protein; residues 40-123; protein details: His6; label: FAM
[8] = target: Sox2-HMG Y110A (Homo sapiens) (UniProt P48431); assay: fluorescence anisotropy; conditions: 10 mM Tris-HEPES pH 7.5, 135 mM KCl, 15 mM NaCl, 1 mM DTT, 8% Ficoll, 0.05% NP-40, 0.1 mg/mL BSA; 2 nM DNA or 3 nM RNA; room temperature (stated for competition); recombinant protein; residues 40-123; protein details: His6; label: FAM
[9] = target: Sox2-HMG W51A (Homo sapiens) (UniProt P48431); assay: fluorescence anisotropy; conditions: 10 mM Tris-HEPES pH 7.5, 135 mM KCl, 15 mM NaCl, 1 mM DTT, 8% Ficoll, 0.05% NP-40, 0.1 mg/mL BSA; 2 nM DNA or 3 nM RNA; room temperature (stated for competition); recombinant protein; residues 40-123; protein details: His6; label: FAM
[10] = target: Sox2-HMG H101A (Homo sapiens) (UniProt P48431); assay: fluorescence anisotropy; conditions: 10 mM Tris-HEPES pH 7.5, 135 mM KCl, 15 mM NaCl, 1 mM DTT, 8% Ficoll, 0.05% NP-40, 0.1 mg/mL BSA; 2 nM DNA or 3 nM RNA; room temperature (stated for competition); recombinant protein; residues 40-123; protein details: His6; label: FAM
[11] = target: Sox2-HMG N46A (Homo sapiens) (UniProt P48431); assay: fluorescence anisotropy; conditions: 10 mM Tris-HEPES pH 7.5, 135 mM KCl, 15 mM NaCl, 1 mM DTT, 8% Ficoll, 0.05% NP-40, 0.1 mg/mL BSA; 2 nM DNA or 3 nM RNA; room temperature (stated for competition); recombinant protein; residues 40-123; protein details: His6; label: FAM
[12] = target: Sox2-HMG K115A (Homo sapiens) (UniProt P48431); assay: fluorescence anisotropy; conditions: 10 mM Tris-HEPES pH 7.5, 135 mM KCl, 15 mM NaCl, 1 mM DTT, 8% Ficoll, 0.05% NP-40, 0.1 mg/mL BSA; 2 nM DNA or 3 nM RNA; room temperature (stated for competition); recombinant protein; residues 40-123; protein details: His6; label: FAM
[13] = target: Sox2-HMG M49A (Homo sapiens) (UniProt P48431); assay: fluorescence anisotropy; conditions: 10 mM Tris-HEPES pH 7.5, 135 mM KCl, 15 mM NaCl, 1 mM DTT, 8% Ficoll, 0.05% NP-40, 0.1 mg/mL BSA; 2 nM DNA or 3 nM RNA; room temperature (stated for competition); recombinant protein; residues 40-123; protein details: His6; label: FAM
[14] = target: Sox2-HMG R56A (Homo sapiens) (UniProt P48431); assay: fluorescence anisotropy; conditions: 10 mM Tris-HEPES pH 7.5, 135 mM KCl, 15 mM NaCl, 1 mM DTT, 8% Ficoll, 0.05% NP-40, 0.1 mg/mL BSA; 2 nM DNA or 3 nM RNA; room temperature (stated for competition); recombinant protein; residues 40-123; protein details: His6; label: FAM

| Sequence | Kd (Sox2-HMG (Homo sapiens) [1]; label: 3' fluorescein) | Kd (Sox2-HMG (Homo sapiens) [1]; label: FAM) | further results |
| --- | --- | --- | --- |
| AUACAACAUACAACAUACAACAUACAACAUACAACA [env8 ssRNA] | 500 nM |  |  |
| CGCGCACTACAGCCCGGGT (double strand) [CCND1_SM6 dsDNA] |  | 24 nM |  |
| CGCGCATTTGTACCCGGGT (double strand) [DPPA4 enhancer dsDNA] |  | 3.4 nM |  |
| CGCGCCATTGTGCCCGGGT (double strand) [SOX2 enhancer dsDNA] |  | 0.9 nM |  |
| CGCGCCCTCTTCCCCGGGT (double strand) [CCND1_SM1 dsDNA] |  | 9.8 nM |  |
| CGCGCCTTTGTTCCCGGGT (double strand) [FGF4 enhancer dsDNA] |  | 0.9 nM | binding result (Sox2-HMG (Homo sapiens) [2]): binds; Ki (Sox2-HMG (Homo sapiens) [3]): 1 nM; binding result [4]: binds; binding signal [5]: 10 Kd mut/wt; binding result [6]: binds more weakly; binding result [7]: binds more weakly; binding signal [8]: 10 Kd mut/wt; binding result [9]: binds more weakly; binding result [10]: binds; binding signal [11]: 10 Kd mut/wt; binding signal [12]: 5.8 Kd mut/wt; binding result [13]: binds more weakly; binding result [14]: binds more weakly |
| GCGAAGGUGGCGGAAUUGGUAGACGCGCUAGCUUCAGGUGUUAGUGUCCUUACGGACGUGGGGGUUCAAGUCCCCCCCCUCGCACCAGGAUCU [tRNALeu(CAG)] | 27 nM |  |  |
| GGAAGAAGUGAAAUCACUAUAUUUAGAAACGAAUGCUACCAUCCCACCCCAACUACAUGUUCAGGUUAAAUGCGUGCACAUCCUGGUAG [ES2 1-89] | 22 nM |  |  |
| GGAAGAAGUGAAAUCACUAUAUUUAGAAACGAAUGCUACCAUCCCACCCCAACUACAUGUUCAGGUUAAAUGCGUGCACAUCCUGGUAGCUGGAACAUCUGUUUCUAGCUUGUUGUUCCUCUUGGCUGCUUUUCAAUUGGAUUUCCUCGAGCAGGUCCCAGGCUUGUCACUGCAGCCA [ES2 1-178] | 30 nM |  |  |
| GGACAUAUAAUCGCGUGGAUAUGGCACGCAAGUUUCUACCGGGCACCGUAAAUGUCCGACUAUGUCC [xpt-pbuX riboswitch] | 26 nM |  |  |
| GGAUCAUGCGGGCGAAAGUCUGUACCUCUCC [Loop B, P1(3bp)] | 10 nM |  |  |
| GGCUGGAACAUCUGUUUCUAGCUUGUUGUUCCUCUUGGCUGCUUUUCAAUUGGAUUUCCUCGAGCAGGUCCCAGGCUUGUCACUGCAGCCA [ES2 89-178] | 13 nM |  |  |
| GGCUGGAACAUCUGUUUCUAGCUUGUUGUUCCUCUUGGCUGCUUUUCAAUUGGAUUUCCUCGAGCAGGUCCCAGGCUUGUCACUGCAGCCAGGGUCUGUUAACCAUCACCACUGGUUCUACAUUAAGUAGGAGGUUCAGGGCUAAGCUAAUAACUCGCCUGCCUUUCUGACUGAUCACAG [ES2 89-267] | 32 nM |  |  |
| GGGUCUGUUAACCAUCACCACUGGUUCUACAUUAAGUAGGAGGUUCAGGGCUAAGCUAAUAACUCGCCUGCCUUUCUGACUGAUCACAG [ES2 179-267] | 12 nM |  |  |
| GGGUCUGUUAACCAUCACCACUGGUUCUACAUUAAGUAGGAGGUUCAGGGCUAAGCUAAUAACUCGCCUGCCUUUCUGACUGAUCACAGUGAUGUUCGCCGUGGCCACUUAUCAUGCGGGCUCCUUUGGGAGGGUGCUCUUCUUUGUCUGUACCUCUGGGUGGAAAGGGCGAAUUC [ES2 179-354] | 11 nM |  |  |

For at least one entry, the source does not settle the construct or the ends of the probe. For some of these results: Weaker means in comparison with the reference protein, sequence or condition of that experiment. For some of these results: Whether high values mean tight binding is not given here for every scale.
